Consider 2 substances from PMC11629901.

Protein sequences, listed by entry. Tags and fused reporters are not part of them. Lines headed by an entry give the natural chain unless they say otherwise; changes in a name come on top. Residues count along the entry.
UniProt Q03692, residues 19-680: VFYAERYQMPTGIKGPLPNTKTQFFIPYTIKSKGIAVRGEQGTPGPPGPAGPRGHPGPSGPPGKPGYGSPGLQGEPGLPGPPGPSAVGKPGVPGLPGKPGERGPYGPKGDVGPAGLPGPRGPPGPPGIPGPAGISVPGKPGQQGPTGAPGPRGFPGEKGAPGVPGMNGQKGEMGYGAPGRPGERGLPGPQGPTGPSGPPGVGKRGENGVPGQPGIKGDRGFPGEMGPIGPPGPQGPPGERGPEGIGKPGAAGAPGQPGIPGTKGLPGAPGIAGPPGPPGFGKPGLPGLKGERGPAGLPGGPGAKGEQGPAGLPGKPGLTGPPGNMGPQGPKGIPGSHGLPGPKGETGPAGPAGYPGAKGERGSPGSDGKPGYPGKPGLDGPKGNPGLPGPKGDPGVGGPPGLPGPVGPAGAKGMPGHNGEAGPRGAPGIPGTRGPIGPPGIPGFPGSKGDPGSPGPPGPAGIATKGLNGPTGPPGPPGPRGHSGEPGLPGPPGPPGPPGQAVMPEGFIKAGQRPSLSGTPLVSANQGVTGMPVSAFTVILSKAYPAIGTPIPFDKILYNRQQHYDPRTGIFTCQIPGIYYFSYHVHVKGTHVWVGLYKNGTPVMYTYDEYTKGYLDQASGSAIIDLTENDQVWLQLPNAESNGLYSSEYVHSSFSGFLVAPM
UniProt P08476: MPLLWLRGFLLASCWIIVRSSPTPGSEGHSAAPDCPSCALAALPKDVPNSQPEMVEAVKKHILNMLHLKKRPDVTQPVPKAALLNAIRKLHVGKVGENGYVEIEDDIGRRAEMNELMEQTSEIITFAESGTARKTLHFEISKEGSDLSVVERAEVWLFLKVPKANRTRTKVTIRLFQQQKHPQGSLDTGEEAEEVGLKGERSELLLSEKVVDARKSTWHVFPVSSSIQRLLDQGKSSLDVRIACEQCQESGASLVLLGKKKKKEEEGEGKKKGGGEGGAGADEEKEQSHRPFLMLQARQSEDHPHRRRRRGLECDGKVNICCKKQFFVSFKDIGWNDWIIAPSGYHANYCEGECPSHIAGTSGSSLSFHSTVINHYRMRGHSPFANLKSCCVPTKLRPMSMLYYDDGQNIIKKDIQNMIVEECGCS

In one assay the target is Flag-tagged COL10A1 (UniProt Q03692). Nature of the assay: co-IP; exogenous Co-IP: plasmids co-transfected into HEK293T cells, 24 h, cold IP lysis buffer with phosphatase and protease inhibitors; protein G agarose beads with antibodies against the tag, 4°C overnight; SDS-PAGE and blot.
The target of assay [1] is collagen type X alpha 1 chain (COL10A1), endogenous (human (endogenous in PC3)) (UniProt Q03692). Nature of the assay: co-IP; endogenous Co-IP: PC3 cells lysed in IP buffer, lysates precipitated with specific primary antibodies and protein G agarose beads, 4°C overnight; SDS-PAGE and blot.

No constants are given. Whether binding was seen depends on the method and setting. In cells and extracts the contact can be indirect. Binding can be weak; no strength is given.

Take HA-tagged INHBA (from UniProt P08476): the binding entry with Flag-tagged COL10A1 was “binds”. With “inhibin subunit beta A (INHBA), endogenous (from UniProt P08476)”, the binding entry in assay [1] is given as “binds”.
